Laboratory results from patent US20260000781A1, “FC CONJUGATES INCLUDING AN INHIBITOR OF CD73 AND USES THEREOF” (Cidara Therapeutics, Inc., priority 2022, published 2026).
No constants are given. Whether binding was seen depends on the method and setting. Some entries that bind do so weakly or less than the wild type. Tags and fused reporters may be left off the sequences shown.

Molecular target: T1, Enzymatically active His-tagged human CD73/NT5E protein (human) (UniProt P21589)
T1 sequence (looked up): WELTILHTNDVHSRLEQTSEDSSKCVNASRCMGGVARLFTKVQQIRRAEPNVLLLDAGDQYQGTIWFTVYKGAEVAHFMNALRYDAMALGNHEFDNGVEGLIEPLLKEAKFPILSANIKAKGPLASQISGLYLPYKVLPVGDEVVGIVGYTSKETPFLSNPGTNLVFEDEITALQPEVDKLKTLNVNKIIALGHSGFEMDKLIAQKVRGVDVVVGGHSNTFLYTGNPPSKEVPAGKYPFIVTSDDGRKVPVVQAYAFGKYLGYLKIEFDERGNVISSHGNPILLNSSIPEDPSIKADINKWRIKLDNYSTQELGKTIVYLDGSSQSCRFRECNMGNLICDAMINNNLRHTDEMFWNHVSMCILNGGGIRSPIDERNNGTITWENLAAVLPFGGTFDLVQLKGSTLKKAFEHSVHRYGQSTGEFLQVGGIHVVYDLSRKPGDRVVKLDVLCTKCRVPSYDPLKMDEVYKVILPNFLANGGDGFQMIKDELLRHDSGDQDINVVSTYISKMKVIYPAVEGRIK
Experiment: CD73-capture ELISA, plate coated with His-tagged human CD73, anti-human IgG Fc HRP detection

For “Conjugate 133a (from UniProt P0DOX5 203-448)”, the binding was “binds”.
